Experimental findings from article doi:10.1101/2021.02.07.430173 are described below.

Chains of the proteins cited; added tags and fusions are not shown.
UniProt Q3TKT4: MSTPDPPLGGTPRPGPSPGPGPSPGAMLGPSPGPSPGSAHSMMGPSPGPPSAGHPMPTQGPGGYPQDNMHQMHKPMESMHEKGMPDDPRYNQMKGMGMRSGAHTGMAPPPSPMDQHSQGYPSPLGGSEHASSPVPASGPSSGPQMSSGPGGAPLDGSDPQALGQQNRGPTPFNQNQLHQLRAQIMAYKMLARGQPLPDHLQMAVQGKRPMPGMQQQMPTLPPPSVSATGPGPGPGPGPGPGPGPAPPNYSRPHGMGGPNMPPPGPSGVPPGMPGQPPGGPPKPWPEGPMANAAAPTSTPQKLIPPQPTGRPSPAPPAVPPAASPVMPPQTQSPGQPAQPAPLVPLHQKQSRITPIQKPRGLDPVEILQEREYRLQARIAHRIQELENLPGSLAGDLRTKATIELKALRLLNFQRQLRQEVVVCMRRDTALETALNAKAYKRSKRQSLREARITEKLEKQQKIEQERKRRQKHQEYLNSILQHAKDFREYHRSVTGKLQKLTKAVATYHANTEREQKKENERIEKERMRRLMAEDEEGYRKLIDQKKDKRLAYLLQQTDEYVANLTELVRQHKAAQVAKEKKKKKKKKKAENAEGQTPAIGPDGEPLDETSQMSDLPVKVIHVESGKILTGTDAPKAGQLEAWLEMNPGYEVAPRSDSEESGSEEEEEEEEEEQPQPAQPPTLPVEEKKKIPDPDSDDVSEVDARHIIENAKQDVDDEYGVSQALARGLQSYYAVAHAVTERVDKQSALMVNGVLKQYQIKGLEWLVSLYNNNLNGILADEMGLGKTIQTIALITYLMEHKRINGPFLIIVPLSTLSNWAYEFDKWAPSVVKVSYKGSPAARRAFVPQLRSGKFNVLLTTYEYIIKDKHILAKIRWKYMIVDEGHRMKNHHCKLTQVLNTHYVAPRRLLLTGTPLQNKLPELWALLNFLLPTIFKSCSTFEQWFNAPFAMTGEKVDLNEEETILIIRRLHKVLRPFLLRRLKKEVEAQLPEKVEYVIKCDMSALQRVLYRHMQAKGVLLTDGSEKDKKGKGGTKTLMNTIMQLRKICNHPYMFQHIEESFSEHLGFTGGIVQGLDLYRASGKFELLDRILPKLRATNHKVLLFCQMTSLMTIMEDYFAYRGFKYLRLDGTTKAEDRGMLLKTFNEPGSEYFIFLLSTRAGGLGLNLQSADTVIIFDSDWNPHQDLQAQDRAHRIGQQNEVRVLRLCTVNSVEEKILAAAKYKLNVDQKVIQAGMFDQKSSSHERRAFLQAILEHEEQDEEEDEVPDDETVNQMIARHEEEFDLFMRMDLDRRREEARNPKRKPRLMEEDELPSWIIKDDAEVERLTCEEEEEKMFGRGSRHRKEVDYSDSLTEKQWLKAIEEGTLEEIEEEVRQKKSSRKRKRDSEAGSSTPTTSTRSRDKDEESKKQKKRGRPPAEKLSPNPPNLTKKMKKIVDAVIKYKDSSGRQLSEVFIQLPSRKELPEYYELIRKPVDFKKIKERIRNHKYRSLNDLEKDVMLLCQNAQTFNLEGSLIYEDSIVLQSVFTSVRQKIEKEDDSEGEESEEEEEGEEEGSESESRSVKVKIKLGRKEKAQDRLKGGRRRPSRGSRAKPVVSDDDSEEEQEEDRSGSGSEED
UniProt P97496: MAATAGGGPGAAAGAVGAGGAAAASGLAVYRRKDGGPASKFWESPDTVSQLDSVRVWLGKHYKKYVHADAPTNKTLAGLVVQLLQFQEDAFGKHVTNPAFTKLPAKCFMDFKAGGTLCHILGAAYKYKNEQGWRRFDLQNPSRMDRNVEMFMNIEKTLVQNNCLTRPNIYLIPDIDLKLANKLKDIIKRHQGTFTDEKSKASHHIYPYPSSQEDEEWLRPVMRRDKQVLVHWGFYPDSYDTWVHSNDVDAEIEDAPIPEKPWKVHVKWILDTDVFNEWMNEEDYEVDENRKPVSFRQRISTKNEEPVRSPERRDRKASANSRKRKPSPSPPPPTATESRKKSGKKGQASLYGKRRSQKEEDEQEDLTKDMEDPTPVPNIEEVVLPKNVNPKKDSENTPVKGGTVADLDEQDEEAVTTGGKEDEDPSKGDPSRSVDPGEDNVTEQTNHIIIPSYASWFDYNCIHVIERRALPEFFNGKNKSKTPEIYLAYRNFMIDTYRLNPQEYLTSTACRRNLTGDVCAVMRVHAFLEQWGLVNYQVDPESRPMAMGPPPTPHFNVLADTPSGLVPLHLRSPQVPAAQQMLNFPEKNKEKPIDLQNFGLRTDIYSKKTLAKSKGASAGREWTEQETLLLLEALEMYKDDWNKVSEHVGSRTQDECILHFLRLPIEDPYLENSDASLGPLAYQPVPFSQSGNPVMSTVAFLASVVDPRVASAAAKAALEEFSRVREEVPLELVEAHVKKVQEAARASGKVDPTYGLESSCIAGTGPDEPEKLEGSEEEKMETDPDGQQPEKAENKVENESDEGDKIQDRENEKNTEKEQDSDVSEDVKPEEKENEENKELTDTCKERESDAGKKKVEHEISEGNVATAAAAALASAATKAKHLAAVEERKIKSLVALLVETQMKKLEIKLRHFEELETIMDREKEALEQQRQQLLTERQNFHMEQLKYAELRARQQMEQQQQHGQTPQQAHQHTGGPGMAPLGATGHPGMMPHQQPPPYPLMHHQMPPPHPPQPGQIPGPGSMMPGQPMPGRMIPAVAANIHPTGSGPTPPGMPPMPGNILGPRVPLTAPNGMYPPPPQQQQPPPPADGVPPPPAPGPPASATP
UniProt P23198: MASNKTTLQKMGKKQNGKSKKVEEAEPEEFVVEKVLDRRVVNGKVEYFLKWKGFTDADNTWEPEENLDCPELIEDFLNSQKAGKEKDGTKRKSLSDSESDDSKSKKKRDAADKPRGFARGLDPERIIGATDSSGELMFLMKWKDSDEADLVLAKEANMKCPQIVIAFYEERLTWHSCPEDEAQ
UniProt A2BH40: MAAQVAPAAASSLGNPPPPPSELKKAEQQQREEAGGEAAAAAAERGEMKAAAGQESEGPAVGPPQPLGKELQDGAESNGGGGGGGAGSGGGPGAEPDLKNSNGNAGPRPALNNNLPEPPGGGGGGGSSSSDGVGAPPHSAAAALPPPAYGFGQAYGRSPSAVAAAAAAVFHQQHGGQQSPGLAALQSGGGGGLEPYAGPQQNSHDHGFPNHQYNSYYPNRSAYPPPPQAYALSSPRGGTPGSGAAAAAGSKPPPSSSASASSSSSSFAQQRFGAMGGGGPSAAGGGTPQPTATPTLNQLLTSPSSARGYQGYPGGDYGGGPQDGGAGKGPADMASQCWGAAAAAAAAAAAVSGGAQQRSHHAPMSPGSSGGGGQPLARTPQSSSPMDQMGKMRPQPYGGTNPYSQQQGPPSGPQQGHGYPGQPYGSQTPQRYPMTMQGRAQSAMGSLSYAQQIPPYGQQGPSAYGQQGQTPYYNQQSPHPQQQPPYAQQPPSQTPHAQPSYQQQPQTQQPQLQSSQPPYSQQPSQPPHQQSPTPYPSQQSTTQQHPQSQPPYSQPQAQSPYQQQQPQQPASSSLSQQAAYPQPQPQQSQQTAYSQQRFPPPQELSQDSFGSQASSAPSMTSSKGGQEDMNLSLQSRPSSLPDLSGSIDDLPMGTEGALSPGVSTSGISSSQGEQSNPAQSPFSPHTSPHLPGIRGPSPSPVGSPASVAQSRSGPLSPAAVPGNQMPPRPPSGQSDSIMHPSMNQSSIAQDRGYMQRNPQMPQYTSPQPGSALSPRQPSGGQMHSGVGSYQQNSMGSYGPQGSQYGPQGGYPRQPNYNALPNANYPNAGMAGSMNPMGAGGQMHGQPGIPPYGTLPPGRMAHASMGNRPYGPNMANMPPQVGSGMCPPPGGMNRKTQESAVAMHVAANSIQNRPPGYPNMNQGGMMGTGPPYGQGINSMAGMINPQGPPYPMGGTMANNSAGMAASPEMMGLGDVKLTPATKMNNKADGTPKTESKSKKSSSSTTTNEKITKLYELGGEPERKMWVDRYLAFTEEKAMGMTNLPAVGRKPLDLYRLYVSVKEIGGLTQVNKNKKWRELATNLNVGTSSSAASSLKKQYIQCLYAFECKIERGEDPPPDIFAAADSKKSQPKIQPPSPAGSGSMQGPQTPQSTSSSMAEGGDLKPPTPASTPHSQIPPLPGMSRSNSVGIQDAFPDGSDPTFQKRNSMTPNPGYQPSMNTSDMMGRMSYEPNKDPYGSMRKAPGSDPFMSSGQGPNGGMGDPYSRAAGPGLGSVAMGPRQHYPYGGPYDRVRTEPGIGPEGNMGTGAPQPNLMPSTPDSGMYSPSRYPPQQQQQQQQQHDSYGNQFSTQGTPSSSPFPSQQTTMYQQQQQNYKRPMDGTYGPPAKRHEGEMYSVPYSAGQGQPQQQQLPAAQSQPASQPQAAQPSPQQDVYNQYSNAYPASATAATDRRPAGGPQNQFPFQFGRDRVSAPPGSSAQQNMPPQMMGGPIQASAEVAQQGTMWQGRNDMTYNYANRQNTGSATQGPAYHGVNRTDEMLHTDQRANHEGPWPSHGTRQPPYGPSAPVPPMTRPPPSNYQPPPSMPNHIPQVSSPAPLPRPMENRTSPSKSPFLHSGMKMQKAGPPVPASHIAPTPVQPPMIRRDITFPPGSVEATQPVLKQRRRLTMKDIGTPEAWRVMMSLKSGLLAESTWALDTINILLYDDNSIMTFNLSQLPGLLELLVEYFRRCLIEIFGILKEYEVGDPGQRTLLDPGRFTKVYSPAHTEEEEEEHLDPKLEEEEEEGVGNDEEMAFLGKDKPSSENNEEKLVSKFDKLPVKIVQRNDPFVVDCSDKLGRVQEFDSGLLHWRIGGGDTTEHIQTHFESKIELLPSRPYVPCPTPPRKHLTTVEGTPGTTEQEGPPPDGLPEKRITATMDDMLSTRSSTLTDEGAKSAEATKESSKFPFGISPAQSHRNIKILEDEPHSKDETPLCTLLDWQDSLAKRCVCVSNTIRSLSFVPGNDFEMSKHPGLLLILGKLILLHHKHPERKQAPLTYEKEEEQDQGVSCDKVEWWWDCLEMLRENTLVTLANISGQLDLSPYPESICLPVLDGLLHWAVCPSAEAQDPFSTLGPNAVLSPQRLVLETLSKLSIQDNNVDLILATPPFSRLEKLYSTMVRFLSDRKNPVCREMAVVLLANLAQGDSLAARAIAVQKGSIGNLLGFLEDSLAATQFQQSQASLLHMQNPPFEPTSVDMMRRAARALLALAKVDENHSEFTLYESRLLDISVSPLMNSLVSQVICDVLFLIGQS

Test in all cases: co-IP
The target of assay [1] is T1, POGZ (in vitro synthesized, TnT) (UniProt Q8BZH4).
T1 sequence: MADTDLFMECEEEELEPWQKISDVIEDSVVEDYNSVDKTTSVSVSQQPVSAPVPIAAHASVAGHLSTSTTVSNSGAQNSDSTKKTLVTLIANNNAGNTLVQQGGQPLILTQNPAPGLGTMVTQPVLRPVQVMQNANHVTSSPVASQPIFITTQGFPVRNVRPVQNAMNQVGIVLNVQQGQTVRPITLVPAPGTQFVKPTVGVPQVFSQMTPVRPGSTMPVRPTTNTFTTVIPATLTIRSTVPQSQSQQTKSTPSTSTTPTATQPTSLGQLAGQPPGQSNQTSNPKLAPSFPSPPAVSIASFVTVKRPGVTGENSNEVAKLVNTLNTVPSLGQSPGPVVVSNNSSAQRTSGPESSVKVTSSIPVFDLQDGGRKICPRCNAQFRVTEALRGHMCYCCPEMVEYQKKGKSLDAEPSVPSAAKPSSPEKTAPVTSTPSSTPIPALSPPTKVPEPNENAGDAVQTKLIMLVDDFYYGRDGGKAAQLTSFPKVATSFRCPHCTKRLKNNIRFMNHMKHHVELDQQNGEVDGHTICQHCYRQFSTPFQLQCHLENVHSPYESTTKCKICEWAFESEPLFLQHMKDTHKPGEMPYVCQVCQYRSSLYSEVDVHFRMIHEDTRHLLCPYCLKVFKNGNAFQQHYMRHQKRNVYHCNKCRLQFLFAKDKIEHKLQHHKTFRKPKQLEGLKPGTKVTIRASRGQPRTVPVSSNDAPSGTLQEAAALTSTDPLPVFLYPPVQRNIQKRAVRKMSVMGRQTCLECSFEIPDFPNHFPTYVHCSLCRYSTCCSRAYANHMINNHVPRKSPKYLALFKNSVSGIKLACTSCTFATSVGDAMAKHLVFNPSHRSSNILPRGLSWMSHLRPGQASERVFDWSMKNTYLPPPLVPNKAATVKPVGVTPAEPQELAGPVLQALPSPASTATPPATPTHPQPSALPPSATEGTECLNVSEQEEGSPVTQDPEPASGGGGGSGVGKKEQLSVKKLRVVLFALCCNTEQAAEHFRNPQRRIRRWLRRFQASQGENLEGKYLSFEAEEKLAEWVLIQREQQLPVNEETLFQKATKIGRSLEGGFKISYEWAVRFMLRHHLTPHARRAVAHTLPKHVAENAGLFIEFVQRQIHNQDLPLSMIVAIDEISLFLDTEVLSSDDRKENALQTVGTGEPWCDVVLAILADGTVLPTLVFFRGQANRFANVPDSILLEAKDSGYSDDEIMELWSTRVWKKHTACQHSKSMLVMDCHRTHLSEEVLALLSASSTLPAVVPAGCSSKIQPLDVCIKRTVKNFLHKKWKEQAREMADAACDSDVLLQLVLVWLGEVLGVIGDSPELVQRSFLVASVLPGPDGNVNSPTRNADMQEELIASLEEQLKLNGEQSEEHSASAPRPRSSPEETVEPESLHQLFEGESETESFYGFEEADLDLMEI

Assay [2] concerns the target T2, POGZ (over-expressed in HEK293T cells) (UniProt Q8BZH4).
T2 sequence: T1 sequence

The target of assay [3] is BRG1 (endogenous, mouse ESCs) (mouse (endogenous in mouse ESCs)) (UniProt Q3TKT4).
The target in assay [4] is T3, 3×Flag-POGZ (mouse) (UniProt Q8BZH4).
T3 sequence: T1 sequence

The target of assay [5] is T3, 3×Flag-POGZ (mouse). The source holds these as a separate data set.
Assay [6] addresses T3, 3×Flag-POGZ (mouse). The source holds these as a separate data set.
In assay [7] the target is T4, POGZ (endogenous, mouse ESCs) (mouse (endogenous in mouse ESCs)) (UniProt Q8BZH4).
T4 sequence: T1 sequence

In assay [8] the target is T4, POGZ (endogenous, mouse ESCs) (mouse (endogenous in mouse ESCs)). This is another data set of the same source.

Where two headings read alike, the source gives them in different places. Results are given in words; binding and its absence hold for the method and conditions named. In cells and extracts the contact can be indirect. Some results given as binding are weak or reduced against the parent protein; the word gives no strength. For some assays here: Tags and fused reporters may be left off the sequences shown.

For the molecule “FLAG-BAF155 (in vitro synthesized, TnT) (from UniProt P97496 1-1104)”, the binding result in assay [1] was “binds”.
Take “FLAG-BAF155 (HEK293T) (from UniProt P97496 1-1104)”: in assay [2], the binding entry is “binds”.
With “HP1γ/CBX3 (endogenous, mouse ESCs) (from UniProt P23198 1-183)”, the binding result (in assay [3]; with 3×Flag-POGZ (mouse) [4]; in the assay with 3×Flag-POGZ (mouse) [5]) was “binds” in each case.
On to “BRG1 (endogenous, mouse ESCs) (from UniProt Q3TKT4 1-1613)”, for which the binding result (with 3×Flag-POGZ (mouse) [6]; in assay [7]; with 3×Flag-POGZ (mouse) [4]) was “binds” throughout.
For “SMARCC1/BAF155 (endogenous, mouse ESCs) (from UniProt P97496 1-1104)”, the binding result with 3×Flag-POGZ (mouse) [4] was “binds weakly”.
In the case of “ARID1A/BAF250a (endogenous, mouse ESCs) (from UniProt A2BH40 1-2283)”, the binding result with 3×Flag-POGZ (mouse) [4] is “binds weakly”.

B1: ADNP (mouse ESCs) (protein, UniProt Q9Z103 1-1108)
chain: MFQLPVNNLGSLRKARKTVKKILSDIGLEYCKEHIEDFKQFEPNDFYLKNTTWEDVGLWDPSLTKNQDYRTKPFCCSACPFSSKFFSAYKSHFRNVHSEDFENRILLNCPYCTFNADKKTLETHIKIFHAPNSSAPSSSLSTFKDKNKNDGLKPKQADNVEQAVYYCKKCTYRDPLYEIVRKHIYREHFQHVAAPYIAKAGEKSLNGAVSLGTNAREECNIHCKRCLFMPKSYEALVQHVIEDHERIGYQVTAMIGHTNVVVPRAKPLMLIAPKPQDKKGMGLPPRISSLASGNVRSLPSQQMVNRLSIPKPNLNSTGVNMMSNVHLQQNNYGVKSVGQSYGVGQSVRLGLGGNAPVSIPQQSQSVKQLLPSGNGRSFGLGAEQRPPAAARYSLQTANTSLPPGQVKSPSVSQSQASRVLGQSSSKPPPAATGPPPSNHCATQKWKICTICNELFPENVYSVHFEKEHKAEKVPAVANYIMKIHNFTSKCLYCNRYLPTDTLLNHMLIHGLSCPYCRSTFNDVEKMAAHMRMVHIDEEMGPKTDSTLSFDLTLQQGSHTNIHLLVTTYNLRDAPAESVAYHAQNNAPVPPKPQPKVQEKADVPVKSSPQAAVPYKKDVGKTLCPLCFSILKGPISDALAHHLRERHQVIQTVHPVEKKLTYKCIHCLGVYTSNMTASTITLHLVHCRGVGKTQNGQDKTNAPSRLNQSPGLAPVKRTYEQMEFPLLKKRKLEEDADSPSCFEEKPEEPVVLALDPKGHEDDSYEARKSFLTKYFNKQPYPTRREIEKLAASLWLWKSDIASHFSNKRKKCVRDCEKYKPGVLLGFNMKELNKVKHEMDFDAEWLFENHDEKDSRVNASKTVDKKHNLGKEDDSFSDSFEHLEEESNGSGSPFDPVFEVEPKIPSDNLEEPVPKVIPEGALESEKLDQKEEEEEEEEEDGSKYETIHLTEEPAKLMHDASDSEVDQDDVVEWKDGASPSESGPGSQQISDFEDNTCEMKPGTWSDESSQSEDARSSKPAAKKKATVQDDTEQLKWKNSSYGKVEGFWSKDQSQWENASENAERLPNPQIEWQNSTIDSEDGEQFDSMTDGVADPMHGSLTGVKLSSQQA
For the molecule B1, the binding entry in assay [8] is reported as “no binding”.
